Results from patent US20240351995A1, “(3-PIRYDYL)-QUINAZOLINE” (BASF SE, priority 2021, published 2024).
Some entries share one result that the patent states for a list of compounds. For some assays here: For at least one compound, name, drawing or mass did not settle the structure.

Columns and labels:
[1] = tested on: Septoria tritici; assay: Microtest: activity against leaf blotch on wheat caused by Septoria tritici; assay type: cell-based; conditions: 31 ppm; relative to active compound-free control (100%)
[2] = tested on: Pyricularia oryzae; assay type: cell-based; conditions: 31 ppm; relative to active compound-free control (100%)
[3] = tested on: Sclerotinia sclerotiorum; assay: Green house: preventative fungicidal control of white mold on soybeans; conditions: 250 ppm, sprayed one day before inoculation, assessed after 6 days, untreated plants 80% infected
[4] = tested on: Fusarium culmorum; assay: Microtest: activity against Fusarium culmorum in the microtiterplate test; assay type: cell-based; conditions: 31 ppm; relative to active compound-free control (100%)
[5] = tested on: Cercospora sojina; assay: Microtest: activity against Cercospora sojina in the microtiterplate test; assay type: cell-based; conditions: 31 ppm; relative to active compound-free control (100%)
[6] = tested on: Botrytis cinerea; assay: Microtest: activity against the grey mold Botrytis cinerea in the microtiterplate test; assay type: cell-based; conditions: 31 ppm; relative to active compound-free control (100%)
[7] = tested on: Botrytis cinerea; assay: Green house: preventative fungicidal control of Botrytis cinerea on leaves of green pepper; assay type: in vivo; conditions: 250 ppm, sprayed one day before inoculation, assessed after 5 days, untreated plants 80% infected
[8] = tested on: Sclerotinia sclerotiorum; assay: Green house: preventative fungicidal control of white mold on oilseed rape; conditions: 100 g/ha, sprayed one day before inoculation, assessed after 14 days, untreated plants 80% infected
[9] = tested on: Cercospora beticula; assay: Microtest: activity against Cercospora beticula in the microtiterplate test; assay type: cell-based; conditions: 31 ppm; relative to active compound-free control (100%)

Molecule	growth of the pathogen (relative growth in %) [1]	growth of the pathogen (relative growth in %) [2]	growth of the pathogen (% diseased leaf area) [3]	growth of the pathogen (relative growth in %) [4]	growth of the pathogen (relative growth in %) [5]	growth of the pathogen (relative growth in %) [6]	growth of the pathogen (% diseased leaf area) [7]	growth of the pathogen (% diseased leaf area) [8]	growth of the pathogen (relative growth in %) [9]
CCC1(C)N=C(c2cnc(C(F)F)c(C)c2)c2cccc(F)c2N1C (racemic) [Ex-29]	up to 20%	up to 20%	at most 21%	up to 20%	up to 17%	up to 14%	at most 15%	–	–
CCC1(C)N=C(c2cnc(C(F)F)c(C)c2)c2cccc(F)c2N1C#N (racemic) [Ex-30]	–	up to 20%	–	–	–	up to 14%	at most 15%	at most 13%	–
Cc1cc(C2=NC(C)(CC(C)C)N(C#N)c3c(F)cccc32)cnc1C(F)F (racemic) [Ex-41]	–	up to 20%	–	–	–	up to 14%	at most 15%	–	–
Cc1cc(C2=NC(C)(C3CC3)N(C)c3c(F)cccc32)cnc1C(F)F (racemic) [Ex-56]	up to 20%	–	–	–	–	up to 14%	at most 15%	–	up to 17%
Cc1cc(C2=NC(C)(c3ccccc3)N(C)c3c(F)cccc32)cnc1C(F)F (racemic) [Ex-60]	–	–	at most 21%	up to 20%	–	up to 14%	at most 15%	at most 13%	up to 17%
Cc1cc(C2=NC(C)(c3ccccn3)N(C)c3c(F)cccc32)cnc1C(F)F (racemic) [Ex-61]	–	–	–	–	–	up to 14%	at most 15%	–	–
Cc1cc(C(=O)c2cccc(F)c2N)cnc1C(F)F [Ex-3, (2-amino-3-fluoro-phenyl)-[6-(difluoromethyl)-5-methyl-3-pyridyl]methanone]	up to 20%	up to 20%	–	up to 20%	–	up to 14%	–	–	–
Cc1cc(C2=NC(C)(C)N(C)c3c(F)cccc32)cnc1C(F)F [Ex-6]	–	up to 20%	at most 21%	up to 20%	up to 17%	up to 14%	at most 15%	at most 13%	–
CCN1c2c(F)cccc2C(c2cnc(C(F)F)c(C)c2)=NC1(C)C [Ex-7]	–	up to 20%	at most 21%	–	–	up to 14%	at most 15%	–	–
Cc1cc(C2=NC(C)(C)N(C)c3c(Cl)cccc32)cnc1C(F)F [Ex-9]	up to 20%	–	–	–	up to 17%	–	–	at most 13%	up to 17%
CCCN1c2c(F)cccc2C(c2cnc(C(F)F)c(C)c2)=NC1(C)C [Ex-13]	–	up to 20%	at most 21%	up to 20%	–	up to 14%	at most 15%	–	–
CCCCN1c2c(F)cccc2C(c2cnc(C(F)F)c(C)c2)=NC1(C)C [Ex-14]	up to 20%	up to 20%	at most 21%	–	–	up to 14%	at most 15%	–	–
Cc1cc(C2=NC(C)(C)N(CC(C)C)c3c(F)cccc32)cnc1C(F)F [Ex-15]	–	–	at most 21%	–	–	up to 14%	at most 15%	–	–
CCCC(=O)N1c2c(F)cccc2C(c2cnc(C(F)F)c(C)c2)=NC1(C)C [Ex-16]	–	up to 20%	–	up to 20%	–	up to 14%	–	–	–
Cc1cc(C2=NC(C)(C)N(C(C)C)c3c(F)cccc32)cnc1C(F)F [Ex-19]	up to 20%	up to 20%	at most 21%	up to 20%	–	up to 14%	at most 15%	at most 13%	–
Cc1cc(C2=NC(C)(C)N(C)c3ccccc32)cnc1C(F)F [Ex-21]	–	up to 20%	–	–	–	up to 14%	at most 15%	–	–

Molecule	growth of the pathogen (relative growth in %) [1]	growth of the pathogen (relative growth in %) [2]	growth of the pathogen (% diseased leaf area) [3]	growth of the pathogen (relative growth in %) [4]	growth of the pathogen (relative growth in %) [5]	growth of the pathogen (relative growth in %) [6]	growth of the pathogen (% diseased leaf area) [7]	growth of the pathogen (% diseased leaf area) [8]	growth of the pathogen (relative growth in %) [9]
Cc1cc(C2=NC(C)(C)Nc3c(Cl)cccc32)cnc1C [Ex-23]	–	up to 20%	–	up to 20%	up to 17%	up to 14%	at most 15%	–	–
Cc1cc(C2=NC(C)(C)N(C#N)c3ccccc32)cnc1C(F)F [Ex-27]	–	up to 20%	at most 21%	up to 20%	–	up to 14%	at most 15%	at most 13%	–
Cc1cc(C2=NC(C)(C)N(C#N)c3c(Cl)cccc32)cnc1C [Ex-28]	–	up to 20%	–	–	up to 17%	up to 14%	at most 15%	–	–
Cc1cc(C2=NC(C)(C)N(C)c3c(Cl)cccc32)cnc1C(F)F [Ex-33]	–	up to 20%	at most 21%	up to 20%	–	up to 14%	at most 15%	–	–
Cc1cc(C2=NC(C)(C)N(C#N)c3ccccc32)cnc1C [Ex-35]	–	–	–	up to 20%	–	up to 14%	at most 15%	–	–
Cc1cc(C2=NC(C)(C)N(C)c3cc(F)ccc32)cnc1C(F)F [Ex-36]	–	up to 20%	–	up to 20%	–	up to 14%	at most 15%	–	–
Cc1cc(C2=NC(C)(C)N(C)c3cc(Cl)ccc32)cnc1C(F)F [Ex-38]	up to 20%	up to 20%	–	up to 20%	–	up to 14%	at most 15%	–	–
Cc1ccc2c(c1)N(C)C(C)(C)N=C2c1cnc(C(F)F)c(C)c1 [Ex-40]	–	up to 20%	–	up to 20%	–	up to 14%	at most 15%	–	–
Cc1cc(C2=NC(C)(C)N(C)c3c(Br)cccc32)cnc1C(F)F [Ex-50]	up to 20%	–	–	up to 20%	–	up to 14%	–	–	up to 17%
Cc1cc(C2=NC(C)(C)N(C)c3c(C)cccc32)cnc1C(F)F [Ex-53]	up to 20%	–	at most 21%	up to 20%	–	up to 14%	at most 15%	at most 13%	up to 17%
Cc1cc(C2=NC(C)(C)N(C#N)c3cc(F)ccc32)cnc1C(F)F [Ex-55]	–	–	–	up to 20%	–	up to 14%	at most 15%	–	–
Cc1cc(C2=NC(C)(C)N(C)c3c(F)cccc32)cnc1C [Ex-66]	up to 20%	–	–	up to 20%	–	up to 14%	–	–	–
Cc1cc(C2=NC(C)(C)N(C)c3c2ccc(F)c3F)cnc1C(F)F [Ex-91]	up to 20%	–	at most 21%	up to 20%	–	up to 14%	–	–	–
(2-amino-3-fluoro-phenyl)-[6-(difluoromethyl)-5-methyl-3-pyridyl]methanol [Ex-2]	–	up to 20%	–	up to 20%	–	up to 14%	at most 15%	–	–
[6-(difluoromethyl)-5-methyl-3-pyridyl]-(3-fluoro-2-nitro-phenyl)methanol [Ex-1]	–	up to 20%	–	–	–	up to 14%	–	–	–
